Experimental data from the supplement of paper PMC7877785.
± gives the uncertainty stated by the source. Many of these values have a large error.

Test: self-splicing fitness, log relative to wild type (ln ratio); higher = more splicing; Tetrahymena group I intron in knt gene, E. coli kanamycin selection, DiMSum; sequences stand for … in CUCUCU…GGAGGGAAAAGUUAUCAGGCAUGCACCUGGUAGCUAGUCUUUAAACCAAUAGAUUGCAUCGGUUUAAAAGGCAAGACCGUCAAAUUGCGGGAAAGGGGUCAACAGCCGUUCAGUACCAAGUCUCAGGGGAAACUUUGAGAUGGCCUUGCAAAGGGUAUGGUAAUAAGCUGACGGACAUGGUCCUAACCACGCAGCCAAGUCCUAAGUCAACAGAUCUUCUGUUGAUAUGGAUGCAGUUCACAGACUAAAUGUCGGUCGGGGAAGAUGUAUUCUUCUCAUAAGAUAUAGUCGGACCUCUCCUUAAUGGGAGCUAGCGGAUGAAGUGAUGCAACACUGGAGCCGCUGGGAACUAAUUUGUAUGCGAAAGUAUAUUGAUUAGUUUUGGAGUACUCGUGGUCG
How it was run: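 Colonies from six replicate transformations of E. coli BL21(DE3) were pooled and amplicon-sequenced on an Illumina HiSeq 2500. The library placed an intron with all eight P1ex-region nucleotides randomised inside the knt kanamycin-resistance gene on pET-22b(+), and cells grew overnight at 37°C or 30°C on LB agar with or without 25 μg/mL kanamycin (plus 100 μg/mL carbenicillin, 50 μM IPTG, 0.2% rhamnose). Fitness is the DiMSum error-weighted combination of wild-type-normalised replicate fold changes, kanamycin versus none.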

Row | Sequence | self-splicing fitness (ln) (30 °C) | self-splicing fitness (ln) (37 °C)
1 | ACGGAGCAAUAUUACGGCUG | -2.87 ± 0.12 | -1.26 ± 0.13
2 | CUGUAGCAAUAUUACGGCGA | -3.7 ± 1 | -3.91 ± 0.59
3 | GGAAAGCAAUAUUACGGCUC | -0.254 ± 0.13 | 0.018 ± 0.16
4 | AGUGAGCAAUAUUACGCUCG | -2.29 ± 0.58 | 
5 | UCUUAGCAAUAUUACGCGGU | -3.5 ± 0.2 | -2.76 ± 0.26
6 | AGUGAGCAAUAUUACGAGCC |  | -1.34 ± 0.87
7 | UAUCAGCAAUAUUACGCUCA | -0.0488 ± 0.092 | 0.0773 ± 0.11
8 | UCAAAGCAAUAUUACGGUUG | -1.38 ± 0.086 | -0.732 ± 0.12
9 | CCUUAGCAAUAUUACGGUCA | -4.77 ± 0.51 | 
10 | GGAUAGCAAUAUUACGAUCC |  | -1.33 ± 0.56
11 | AAGGAGCAAUAUUACGUGAC | -2.46 ± 0.55 | 
12 | AGGUAGCAAUAUUACGGUAA | -2.123 ± 0.021 | -1.2 ± 0.034
13 | UGGGAGCAAUAUUACGUAAA |  | -2.49 ± 0.55
14 | UUCCAGCAAUAUUACGUGAC | -2.56 ± 0.2 | -1.89 ± 0.21
15 | UACAAGCAAUAUUACGCUGU | -3.77 ± 1 | 
16 | AGUGAGCAAUAUUACGGAAA |  | -0.935 ± 0.77
17 | UCCCAGCAAUAUUACGUCUC | -3.23 ± 0.22 | -2.89 ± 0.25
18 | GCUAAGCAAUAUUACGCUGC |  | -2.14 ± 0.5
19 | UAAUAGCAAUAUUACGCCCG | -0.946 ± 0.6 | 
20 | UCUGAGCAAUAUUACGAAAC |  | -2.57 ± 1.1
21 | AUGGAGCAAUAUUACGUAGC | -4.44 ± 1 | 

Row | Sequence | self-splicing fitness (ln) (30 °C) | self-splicing fitness (ln) (37 °C)
22 | AGUUAGCAAUAUUACGCUCU |  | -1.02 ± 0.71
23 | CUUGAGCAAUAUUACGAGCU |  | -2.69 ± 0.76
24 | UUGCAGCAAUAUUACGACCC | -1.91 ± 0.56 | 
25 | AGGGAGCAAUAUUACGCGUU |  | -2.46 ± 0.44
26 | GAGAAGCAAUAUUACGUCCU |  | -0.17 ± 0.54
27 | GGCUAGCAAUAUUACGCGAC |  | -0.372 ± 0.68
28 | GAUGAGCAAUAUUACGUCAA | -3.32 ± 0.28 | -3.44 ± 0.37
29 | ACAGAGCAAUAUUACGAAGA | -3.48 ± 0.53 | -0.891 ± 0.84
30 | AAAGAGCAAUAUUACGACGA | -2.27 ± 0.23 | -2.57 ± 0.25
31 | CGCGAGCAAUAUUACGUUGC |  | -3.22 ± 0.52
32 | UUCCAGCAAUAUUACGCCAC | -3.73 ± 0.61 | 
33 | UAGCAGCAAUAUUACGAACC | -2.61 ± 0.66 | -0.977 ± 0.66
34 | GUCUAGCAAUAUUACGUCUA | -1.33 ± 0.23 | -1.22 ± 0.16
35 | ACGCAGCAAUAUUACGGUGC |  | -3.95 ± 0.72
36 | GACGAGCAAUAUUACGAGCU | -3.27 ± 0.31 | -1.83 ± 0.52
37 | UAUAAGCAAUAUUACGCAAC |  | -2.87 ± 0.62
38 | CACGAGCAAUAUUACGCCGA |  | -3.5 ± 0.73
39 | GCUCAGCAAUAUUACGUGCC | -5.04 ± 0.71 | 
40 | UACAAGCAAUAUUACGAACC | -3.39 ± 0.56 | -0.357 ± 0.23
41 | UAGAAGCAAUAUUACGAAGG | -2.9 ± 0.17 | -1.82 ± 0.39
42 | GGCGAGCAAUAUUACGACGC |  | -1.45 ± 0.5

From entry 23 to 25, copied from above:
Row | Sequence | self-splicing fitness (ln) (30 °C) | self-splicing fitness (ln) (37 °C)
23 | CUUGAGCAAUAUUACGAGCU |  | -2.69 ± 0.76
24 | UUGCAGCAAUAUUACGACCC | -1.91 ± 0.56 | 
25 | AGGGAGCAAUAUUACGCGUU |  | -2.46 ± 0.44

Later entries.

Row | Sequence | self-splicing fitness (ln) (30 °C) | self-splicing fitness (ln) (37 °C)
43 | GAAGAGCAAUAUUACGGGUC |  | -2.96 ± 0.53
44 | CUCUAGCAAUAUUACGAGAC |  | -1.17 ± 0.26
45 | GGAUAGCAAUAUUACGAGAA | -1.79 ± 0.93 | -1.42 ± 0.5
46 | GGAGAGCAAUAUUACGUUGC |  | -1.62 ± 1.1
47 | GGUGAGCAAUAUUACGUUAC | -3.12 ± 0.47 | -0.718 ± 0.24
48 | GGAGAGCAAUAUUACGGUUA |  | -2.61 ± 0.55
49 | CGCGAGCAAUAUUACGCACG | -4.12 ± 0.53 | 
50 | CUCUAGCAAUAUUACGUGCA |  | -3.44 ± 0.52
51 | UGUUAGCAAUAUUACGCCAC |  | -1.79 ± 1.2
52 | UUCAAGCAAUAUUACGUCUU | -4.97 ± 0.58 | 
53 | UCUUAGCAAUAUUACGCCGC | -2.88 ± 0.67 | -1 ± 0.5
54 | GAUUAGCAAUAUUACGAGAA | -3.39 ± 1 | 
55 | GGAGAGCAAUAUUACGCACG | -4.03 ± 0.52 | 
56 | AUAGAGCAAUAUUACGGUGG |  | -0.693 ± 1.4
57 | UCUAAGCAAUAUUACGAAUC | -4.12 ± 1 | 
58 | GGGAAGCAAUAUUACGAGCC | -1.74 ± 0.87 | 0.917 ± 1.1
59 | CCCGAGCAAUAUUACGCUAC | -3.35 ± 0.65 | -2.05 ± 0.8
60 | UAUGAGCAAUAUUACGCUAG |  | -1.36 ± 0.84
61 | CUAUAGCAAUAUUACGAAGA |  | -3.36 ± 0.52
